Source: patent US20140287995A1, “STABLE PHARMACEUTICAL FORMULATIONS OF GROWTH FACTOR PEPTIDES” (THE UNIVERSITY OF CHICAGO, priority 2011, published 2014)

Experiment: Stability of neutral lyophilized NX001 formulation, 12 months storage
Type: physicochemical
Experimental: The stability of NX001 formulations was also evaluated. The stability of a lot of NX001 was monitored for 12 months at storage temperatures of 5° C. and 25° C. Appearance of lyophilized cake, reconstitution time, appearance of the reconstituted solution, pH, identity of the peptide, potency and purity of the peptide, and residual moisture were evaluated.
The evaluated parameters of neutral formulations of NX001 were not changed following 12 months storage at temperatures of 5° C. and 25° C.

Measured: Identity (reverse-phase HPLC peak of sample compared to standard)

AQPYPQGNHEASYG [NX001, growth factor peptide designated NX001; PPL-WGF codes are lots of it]
Positive: 5° C., After 12 months of storage | 5° C., Initial | 25° C., After 12 months of storage | 25° C., Initial
